Measured values published in publication PMC12040169 (PLOS Biology, 2025).
The other results are listed elsewhere or left out.

tested on: T1, CTL2-GFP (C. trachomatis L2/434/Bu, GFP-expressing); parameters: species or system HeLa; Intracellular C. trachomatis growth in HeLa cells, bulk GFP fluorescence relative to DMSO; conditions: bulk GFP, single well; 28.5 h, 10 µM; inhibitor
T1 construct: L2/434/Bu, GFP-expressing

SMILES | % of control remaining [%]
O=C(Nc1ccccc1)Nc1ccc([N+](=O)[O-])cc1 [CBK016975] | 63.5484
O=C1CN(C(=O)Nc2ccc(Cl)cc2)CCN1 [CBK155861] | 129.985
O=C(Nc1ccc(F)cc1)c1ccccc1NS(=O)(=O)c1ccc(Br)cc1 [CBK045438] | 49.0267
Cc1cccc(C(=O)Nc2nnc(-c3ccncc3)o2)c1 [CBK287430] | 125.364
Cc1cc(C[C@@H]2COC[C@H]2NCc2ccccc2C(F)(F)F)on1 [CBK285464] | 146.667
COc1cc(CN2CCNCC2)c2ccn(S(=O)(=O)c3ccccc3C#N)c2c1 [CBK144486T] | 95.4748
CS(=O)(=O)N1CC2(CCN(CC3COc4ccccc4O3)CC2)c2ccccc21 (stereo not drawn) [CBK115461T] | 83.6378
CCOC(=O)C1CCCN(C(=O)Cn2c(C)nc3ccccc3c2=O)C1 (stereo not drawn) [CBK306150] | 122.392
CCOc1ccc(S(=O)(=O)N2CCCN(Cc3ccc(F)cc3F)CC2)c2cccnc12 [CBK062757] | 71.3177
Cc1ccc(NC(=O)CSc2nnc(N)[nH]2)cc1 [CBK034301] | 126.229
COc1cc(OC)nc(N2CCN(c3nccnc3NS(=O)(=O)C3CC3)CC2)n1 [CBK048698] | 112.435
NS(=O)(=O)c1ccc(NC(=O)c2cc3c(n(-c4ccccc4)c2=O)CCCC3=O)cc1 [CBK266467] | 143.477
O=C(Nc1ccccc1)N1C[C@@H]2OCC(=O)N(Cc3ccc(F)cc3)[C@@H]2C1 [CBK289683] | 154.628
O=C(NCCc1c[nH]cn1)Nc1cccc(C(F)(F)F)c1 [CBK269822] | 120.552
Cc1nccn1CCN(C)C(=O)C1CC2C=CC1C21CC1 (stereo not drawn) [CBK282084] | 97.1793
CCn1c(C(O)c2ccc(OCc3ccccc3)cc2)nc2ccccc21 (stereo not drawn) [CBK263458] | 100
CC(C)c1ccc(C(C)NC(=O)Cn2cc(C(=O)NC3CCCCC3)ccc2=O)cc1 (stereo not drawn) [CBK286097] | 113.543
COc1ccc(F)cc1-c1ccccc1CC1(C(=O)NCCc2ccccc2)CCOCC1 [CBK286424] | 82.9107
Cn1c2ccccc2c2ncn(CCS)c(=O)c21 [CBK288412] | 100.386
Cc1[nH]c(C(=O)NCCc2ccco2)c(C)c1C(=O)OC(C)C [CBK295180] | 162.543
Cc1nnc(S)n1CC(=O)n1c2c(c3ccccc31)CCCC2 [CBK266244] | 163.124
CN(C)S(=O)(=O)N(CC(=O)Nc1ccc2c(c1)OCO2)c1ccccc1 [CBK268481] | 64.2777
Cc1ccc(C(=O)O)cc1S(=O)(=O)NCCCO [CBK267171] | 129.457
Cc1noc(-c2cn(C)nc2C2CCCCN2C(=O)C2CC2)c1C (stereo not drawn) [CBK283410] | 106.074
Cc1ccc(S(=O)(=O)N2CCOCC2)cc1C(=O)O [CBK262256] | 85.7983
O=C(CC1S\C(=N/N=C/C=C/c2ccccc2)N=C1O)Nc1ccc(C(=O)O)cc1 (stereo not drawn) [CBK263711] | 110.28

Given with tabs: entries from further up.
SMILES	% of control remaining [%]
O=C1CN(C(=O)Nc2ccc(Cl)cc2)CCN1 [CBK155861]	129.985
O=C(Nc1ccc(F)cc1)c1ccccc1NS(=O)(=O)c1ccc(Br)cc1 [CBK045438]	49.0267
Cc1cccc(C(=O)Nc2nnc(-c3ccncc3)o2)c1 [CBK287430]	125.364
Cc1cc(C[C@@H]2COC[C@H]2NCc2ccccc2C(F)(F)F)on1 [CBK285464]	146.667
CS(=O)(=O)N1CC2(CCN(CC3COc4ccccc4O3)CC2)c2ccccc21 (stereo not drawn) [CBK115461T]	83.6378
CCOC(=O)C1CCCN(C(=O)Cn2c(C)nc3ccccc3c2=O)C1 (stereo not drawn) [CBK306150]	122.392
Cc1ccc(NC(=O)CSc2nnc(N)[nH]2)cc1 [CBK034301]	126.229
COc1cc(OC)nc(N2CCN(c3nccnc3NS(=O)(=O)C3CC3)CC2)n1 [CBK048698]	112.435
NS(=O)(=O)c1ccc(NC(=O)c2cc3c(n(-c4ccccc4)c2=O)CCCC3=O)cc1 [CBK266467]	143.477
O=C(Nc1ccccc1)N1C[C@@H]2OCC(=O)N(Cc3ccc(F)cc3)[C@@H]2C1 [CBK289683]	154.628
O=C(NCCc1c[nH]cn1)Nc1cccc(C(F)(F)F)c1 [CBK269822]	120.552
Cc1nccn1CCN(C)C(=O)C1CC2C=CC1C21CC1 (stereo not drawn) [CBK282084]	97.1793
CCn1c(C(O)c2ccc(OCc3ccccc3)cc2)nc2ccccc21 (stereo not drawn) [CBK263458]	100
COc1ccc(F)cc1-c1ccccc1CC1(C(=O)NCCc2ccccc2)CCOCC1 [CBK286424]	82.9107
Cc1nnc(S)n1CC(=O)n1c2c(c3ccccc31)CCCC2 [CBK266244]	163.124
CN(C)S(=O)(=O)N(CC(=O)Nc1ccc2c(c1)OCO2)c1ccccc1 [CBK268481]	64.2777
Cc1ccc(C(=O)O)cc1S(=O)(=O)NCCCO [CBK267171]	129.457
Cc1noc(-c2cn(C)nc2C2CCCCN2C(=O)C2CC2)c1C (stereo not drawn) [CBK283410]	106.074
Cc1ccc(S(=O)(=O)N2CCOCC2)cc1C(=O)O [CBK262256]	85.7983
O=C(CC1S\C(=N/N=C/C=C/c2ccccc2)N=C1O)Nc1ccc(C(=O)O)cc1 (stereo not drawn) [CBK263711]	110.28

More structures.

SMILES | % of control remaining [%]
Cc1occc1-c1nnc(SCC(=O)c2ccc3c(c2)OCCO3)o1 [CBK268773] | 133.115
C(=N\c1ccc(Cc2ccc(/N=C/c3ccc[nH]3)cc2)cc1)/c1ccc[nH]1 [CBK261282] | 96.9913
Cc1cnccc1-c1c[nH]nc1C1CCCN1C(=O)c1ccccc1 (stereo not drawn) [CBK285499] | 117.024
O=C(c1cc(F)c(F)cc1F)N1CCC2(CCN(CCN3CCOCC3)C2)C1 (stereo not drawn) [CBK132145C] | 164.717
Cc1c[nH]c(CN(C)C(=O)c2cccc(NC(=O)C3CCCC3)c2)n1 [CBK307282] | 126.478
N#Cc1cnccc1N1CC2COCCC2(C(=O)N2CCCC2)C1 (stereo not drawn) [CBK304731] | 110.589
COc1ccc(S(=O)(=O)N2CCN(CCN3C(=O)c4cccc5cccc(c45)C3=O)CC2)cc1[N+](=O)[O-] [CBK263301] | 126.347
CCn1c(=O)n(CC(=O)N2CCCCC2C)c2cccnc21 (stereo not drawn) [CBK283896] | 84.089
FC(F)(F)Oc1ccc(-c2c[nH]c([C@@H]3COCCN3C3CCNCC3)n2)cc1 [CBK289312] | 169.002
CCOc1ccc(S(=O)(=O)NC(C)C(=O)O)cc1C (stereo not drawn) [CBK270178] | 73.5627
O=C1NC2(CCN(C(=O)c3ccccc3F)CC2)Oc2ccccc21 [CBK283997] | 137.288
Cc1cc(=O)n(CC(=O)NC(Cc2ccncc2)[C@H]2C[C@H](O)C2)nc1C (stereo partly drawn) [CBK306641] | 172.913
COc1ccc2cc3c(nc2c1)Sc1nncn1N=C3 [CBK021248] | 125.037
NS(=O)(=O)c1ccc(CCNC=C2C(=O)c3ccccc3C2=O)cc1 [CBK262997] | 100
Cc1cc(C(F)(F)F)nc(SCC(=O)N2c3ccccc3Sc3ccccc32)n1 [CBK268078] | 76.1861
Cc1csc2c(C3CCN(C(=O)C4CC4)CC3)nc(C)n12 [CBK285241] | 130.576
CCc1c(C)sc(NC(=O)c2ccc(Br)o2)c1C#N [CBK021662] | 100
Cc1ccc2oc([C@H]3CCN(S(C)(=O)=O)C3)nc2c1 [CBK289371] | 143.035
CCCC/C=C/c1nccnc1N[C@@H](C)c1ccccc1 [CBK037138] | 140.862
CCOc1ccc(-n2c(SCC(=O)Nc3cc(C(=O)O)ccc3Cl)nc3ccccc3c2=O)cc1 [CBK297512] | 107.702
CC(=O)Nc1cccc(-n2nnnc2SCC(=O)N2CCNC2=O)c1 [CBK305043] | 102.158
COCc1cccc(-c2nccnc2OC)c1 [CBK106956] | 158.855
OCC1CCCN1c1nccnc1-c1cccs1 (stereo not drawn) [CBK089060] | 105.002
CC(C)(C)c1nnc2sc(-c3cccnc3)nn12 [CBK287289] | 104.772
O=C(Oc1ccc(/C=N/c2ccc(-c3nc4ccccc4s3)c(O)c2)cc1)c1ccc(Cl)cc1 [CBK261234] | 100
NC(=O)C1(N2CCCCC2)CCN(C(=S)Nc2ccc(F)c(Cl)c2)CC1 [CBK267165] | 190.095

SMILES | % of control remaining [%]
CC(C)CN1CCC(NC(=O)c2csc(-c3cnn(C)c3)n2)CC1 [CBK305790] | 100.849
COc1cccc(-c2nn(CCC#N)cc2C(=O)N2CCCCC2)c1 [CBK305942] | 96.5529
O=C(O)c1ccc(N2N=C(c3ccccc3)/C(=C\c3cccc([N+](=O)[O-])c3O)C2=O)cc1 [CBK265615] | 117.893
COc1ccc(CN2CCCc3c(C)nc(C4CCCN(C(=O)C5CCC5)C4)nc32)cc1 (stereo not drawn) [CBK286117] | 75.6242
O=c1ccc(O)nn1CN1CCN(Cc2ccccc2)CC1 [CBK265539] | 125.849
C/C(=N\NC(N)=S)C(=O)O [CBK261575] | 48.8317
COc1cccc(CCN(Cc2ccc(S(=O)(=O)N3CCOC3=O)cc2)Cc2cccc(OCCO)c2)c1 [CBK014806] | 106.507
CC(C)c1ccc(S(=O)(=O)NCCc2ccccc2)cc1 [CBK044426] | 136.924
COc1ccccc1NC(=O)N1C[C@@H]2C[C@H](C1)c1c(-c3cccc(C#N)c3)ccc(=O)n1C2 [CBK289197] | 141.674
CN1CCN(c2ccc(-c3cncc(NCCc4ccccn4)n3)cn2)CC1 [CBK037135] | 130.295
Cc1ccc2c(c1)C1(CC(=O)N(C)C1=O)C(=O)N2CCOc1cccc2c1OCCO2 (stereo not drawn) [CBK075529] | 140.33
N#CC1CCCc2c1[nH]c1ccc(Br)cc21 (stereo not drawn) [CBK026475] | 51.564
Cc1cc(OCC(=O)N2CCN(c3ccccc3F)CC2)no1 [CBK305898] | 118.577
c1ccc(Cn2cc(-c3cnc(N4CCOCC4)c4nccn34)cn2)cc1 [CBK091289] | 139
C=CCn1ncc(CN2CCC3(O)CCCCC3C2)c1C (stereo not drawn) [CBK283029] | 135.407
CC(O)CNCCCOc1ccccc1-c1ccccc1 (stereo not drawn) [CBK268633G] | 176.046
Oc1cc(C(F)(F)F)nc(NCc2ccc3ccccc3c2)n1 [CBK003459] | 91.1516
O=C(c1ccc2[nH]c(=O)[nH]c2c1)N1CCC(Cn2cncn2)(C2CCCCC2)CC1 [CBK136824] | 121.917
CC(C)(C)c1nc(-c2ccccc2)c2ccccn12 [CBK149256] | 98.6159
O=c1[nH]c(SCc2n[nH]c(=S)n2-c2ccccc2)nc2sc3c(c12)CCCC3 [CBK300538] | 92.6676
COc1cccc(-c2nnnn2[C@H]2CO[C@H]3[C@@H]2OC[C@@H]3NC(=O)c2ccc(C)cc2)c1 [CBK289512] | 105.129
COc1cccc(-c2nc(-c3ccc4[nH]c(=O)[nH]c4c3)cs2)c1OC [CBK298271] | 137.286
Cc1cc(C)nc(N2CCN(C(=O)CCC(=O)NCc3cccc(C(F)(F)F)c3)CC2)n1 [CBK022261] | 144.588
O=C(O)CC1COCCN1Cc1ccc(Cn2cccn2)cc1 (stereo not drawn) [CBK306827] | 146.044
CCC(C(=O)N1CCC(C(=O)c2cccnc2)CC1)c1ccccc1 (stereo not drawn) [CBK283525] | 116.822
CC(=O)N1c2ccc(-c3cc4ccccn4c3)cc2CC1C (stereo not drawn) [CBK285254] | 138.779
